Assay results taken from doi:10.1101/287649.
No constants are given. Whether binding was seen depends on the method and setting. In cells and extracts the contact can be indirect. Some results given as binding are weak or reduced against the parent protein; the word gives no strength. Where a sequence is shown, tags or fusion partners need not be part of it.

Target: T1, Mcp1 (Schizosaccharomyces pombe) (UniProt O94452)
T1 sequence: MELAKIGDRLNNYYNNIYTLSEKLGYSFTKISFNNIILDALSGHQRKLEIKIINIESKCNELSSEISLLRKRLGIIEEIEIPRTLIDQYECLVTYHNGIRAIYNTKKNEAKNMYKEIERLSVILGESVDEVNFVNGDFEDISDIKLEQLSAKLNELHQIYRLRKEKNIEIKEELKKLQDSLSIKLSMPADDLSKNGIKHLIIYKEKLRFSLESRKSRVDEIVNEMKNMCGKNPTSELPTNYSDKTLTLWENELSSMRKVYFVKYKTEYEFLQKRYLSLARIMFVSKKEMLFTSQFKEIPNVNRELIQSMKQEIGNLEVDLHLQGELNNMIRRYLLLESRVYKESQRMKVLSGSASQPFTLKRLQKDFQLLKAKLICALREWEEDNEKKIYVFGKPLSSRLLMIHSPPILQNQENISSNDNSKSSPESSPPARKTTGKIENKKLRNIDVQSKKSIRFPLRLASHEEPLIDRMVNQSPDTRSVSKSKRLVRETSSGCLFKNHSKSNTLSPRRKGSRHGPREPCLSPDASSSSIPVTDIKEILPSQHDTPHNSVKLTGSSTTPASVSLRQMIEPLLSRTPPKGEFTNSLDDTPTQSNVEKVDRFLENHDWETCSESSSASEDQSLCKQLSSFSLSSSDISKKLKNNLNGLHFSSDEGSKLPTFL
Assay: co-IP

binding: binds weakly
B1: Klp5 (protein, UniProt O14343 1-883)
chain: MSRQSSITVTVRVRPFSTAESANLIASSDRLSFGTSSSLRNPGSGRQIRRVVKVLDGRVLVFDPPDETTATLSATNRRLSTSQQSLARLSRKSNNSAGFGRDLRYAFDRVFDETATQQQVYERTARPLLDNILDGFNATIFAYGATGCGKTHTISGTMQDPGLIYLTLKELFERMDHLRDEKIFDLRLSYLEIYNETIRDLLVSPTPNQAKPLNLREDADRRITVPGLTSLSPESLEEIIDIIMKGNANRTMSPTEANAASSRSHAVLQVTLIQKPRTAGINEDHTLATLSIIDLAGSERATATKLRGSRLFEGANINKSLLALGNCINALCDPHRRAHVPYRDSKLTRLLKFSLGGNCRTVMIVCVSPSSVHYEETHNTLKYANRAKNIKTEVLRNMISVDRHVSQYVKAIVELREQISELENRLAQIDLSSQSNGSDQDAVTQSFAHESKLAEARNLLRMTFEETLPLQNDTINKVEKVKHFDDSIRVLKYWLSCYERILPNSADERVFLVRSKLESLLTRRAEIIADIDPELVYQKFQRSVSHIINTYKQEGATMYADVLQDEVDLLKSIIENQVLDAQNKVDEFTPVLESLLRSSFKASSLLKEGGMQELFSILEKWLLGIGLGEKPNISVLSESYKLNSTSDDSRTINRDRVHSFPTQPLLNNNLPRMFFVKSPKKPVVFSKRSPKKRVRFDDSMSTSDSGASAYNSPIQTSKLKNMNFFNTMHMPSTPAHKRPENKNQIDVEINLTSPVSPMLEDKPEPGLLIKSPLEKKQEVNSESTQLDQLLAEDSSTDDVSLPHLDTIDLDGSPVPKVPDLNFSRANMDSPTFILNNEAIHNFDFSKPKTRQSLSSLTTLHLSNPANIIRKSLSMAENEEEKAT
